For ten molecules, binding results are on record in article doi:10.1101/145664.

Sequences of proteins named here, by UniProt entry; tags and fusion partners are left off.
UniProt Q12446: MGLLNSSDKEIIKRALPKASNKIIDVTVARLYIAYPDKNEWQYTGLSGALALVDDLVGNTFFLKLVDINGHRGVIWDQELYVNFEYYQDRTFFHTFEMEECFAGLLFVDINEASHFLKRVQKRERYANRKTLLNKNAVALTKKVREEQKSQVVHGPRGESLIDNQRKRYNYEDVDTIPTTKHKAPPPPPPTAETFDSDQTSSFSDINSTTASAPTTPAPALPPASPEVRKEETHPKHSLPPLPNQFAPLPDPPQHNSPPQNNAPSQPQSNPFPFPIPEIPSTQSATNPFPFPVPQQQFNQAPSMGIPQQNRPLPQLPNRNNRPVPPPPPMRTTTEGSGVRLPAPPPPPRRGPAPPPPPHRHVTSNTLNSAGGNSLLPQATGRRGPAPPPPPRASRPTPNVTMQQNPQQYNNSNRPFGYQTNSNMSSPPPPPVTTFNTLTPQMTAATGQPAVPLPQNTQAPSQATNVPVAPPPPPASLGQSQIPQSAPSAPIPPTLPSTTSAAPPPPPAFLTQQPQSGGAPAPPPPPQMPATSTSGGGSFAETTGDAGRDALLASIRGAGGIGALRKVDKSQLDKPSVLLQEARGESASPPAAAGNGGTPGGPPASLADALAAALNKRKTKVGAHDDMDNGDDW
UniProt P31539: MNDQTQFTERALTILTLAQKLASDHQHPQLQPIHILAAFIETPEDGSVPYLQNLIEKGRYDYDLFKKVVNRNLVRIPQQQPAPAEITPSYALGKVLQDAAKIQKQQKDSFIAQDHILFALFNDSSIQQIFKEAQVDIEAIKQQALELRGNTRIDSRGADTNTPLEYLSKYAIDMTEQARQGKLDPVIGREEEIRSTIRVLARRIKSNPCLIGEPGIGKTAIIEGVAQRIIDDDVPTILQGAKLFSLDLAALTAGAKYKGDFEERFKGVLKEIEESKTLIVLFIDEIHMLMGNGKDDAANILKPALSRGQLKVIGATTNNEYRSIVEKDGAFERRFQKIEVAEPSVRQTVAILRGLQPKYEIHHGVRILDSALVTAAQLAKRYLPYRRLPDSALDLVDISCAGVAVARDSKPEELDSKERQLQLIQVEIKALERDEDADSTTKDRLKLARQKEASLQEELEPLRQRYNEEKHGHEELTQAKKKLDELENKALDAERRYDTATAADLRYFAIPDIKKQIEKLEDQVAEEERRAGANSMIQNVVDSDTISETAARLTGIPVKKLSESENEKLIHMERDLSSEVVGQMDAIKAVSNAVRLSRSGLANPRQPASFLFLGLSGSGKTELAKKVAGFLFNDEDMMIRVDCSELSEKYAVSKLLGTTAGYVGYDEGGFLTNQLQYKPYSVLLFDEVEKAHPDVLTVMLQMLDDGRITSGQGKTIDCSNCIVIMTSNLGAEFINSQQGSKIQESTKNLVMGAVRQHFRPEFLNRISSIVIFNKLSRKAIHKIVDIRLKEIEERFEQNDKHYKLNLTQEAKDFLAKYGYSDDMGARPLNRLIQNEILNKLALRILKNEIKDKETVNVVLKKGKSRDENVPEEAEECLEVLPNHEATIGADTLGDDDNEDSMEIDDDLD
UniProt P22137: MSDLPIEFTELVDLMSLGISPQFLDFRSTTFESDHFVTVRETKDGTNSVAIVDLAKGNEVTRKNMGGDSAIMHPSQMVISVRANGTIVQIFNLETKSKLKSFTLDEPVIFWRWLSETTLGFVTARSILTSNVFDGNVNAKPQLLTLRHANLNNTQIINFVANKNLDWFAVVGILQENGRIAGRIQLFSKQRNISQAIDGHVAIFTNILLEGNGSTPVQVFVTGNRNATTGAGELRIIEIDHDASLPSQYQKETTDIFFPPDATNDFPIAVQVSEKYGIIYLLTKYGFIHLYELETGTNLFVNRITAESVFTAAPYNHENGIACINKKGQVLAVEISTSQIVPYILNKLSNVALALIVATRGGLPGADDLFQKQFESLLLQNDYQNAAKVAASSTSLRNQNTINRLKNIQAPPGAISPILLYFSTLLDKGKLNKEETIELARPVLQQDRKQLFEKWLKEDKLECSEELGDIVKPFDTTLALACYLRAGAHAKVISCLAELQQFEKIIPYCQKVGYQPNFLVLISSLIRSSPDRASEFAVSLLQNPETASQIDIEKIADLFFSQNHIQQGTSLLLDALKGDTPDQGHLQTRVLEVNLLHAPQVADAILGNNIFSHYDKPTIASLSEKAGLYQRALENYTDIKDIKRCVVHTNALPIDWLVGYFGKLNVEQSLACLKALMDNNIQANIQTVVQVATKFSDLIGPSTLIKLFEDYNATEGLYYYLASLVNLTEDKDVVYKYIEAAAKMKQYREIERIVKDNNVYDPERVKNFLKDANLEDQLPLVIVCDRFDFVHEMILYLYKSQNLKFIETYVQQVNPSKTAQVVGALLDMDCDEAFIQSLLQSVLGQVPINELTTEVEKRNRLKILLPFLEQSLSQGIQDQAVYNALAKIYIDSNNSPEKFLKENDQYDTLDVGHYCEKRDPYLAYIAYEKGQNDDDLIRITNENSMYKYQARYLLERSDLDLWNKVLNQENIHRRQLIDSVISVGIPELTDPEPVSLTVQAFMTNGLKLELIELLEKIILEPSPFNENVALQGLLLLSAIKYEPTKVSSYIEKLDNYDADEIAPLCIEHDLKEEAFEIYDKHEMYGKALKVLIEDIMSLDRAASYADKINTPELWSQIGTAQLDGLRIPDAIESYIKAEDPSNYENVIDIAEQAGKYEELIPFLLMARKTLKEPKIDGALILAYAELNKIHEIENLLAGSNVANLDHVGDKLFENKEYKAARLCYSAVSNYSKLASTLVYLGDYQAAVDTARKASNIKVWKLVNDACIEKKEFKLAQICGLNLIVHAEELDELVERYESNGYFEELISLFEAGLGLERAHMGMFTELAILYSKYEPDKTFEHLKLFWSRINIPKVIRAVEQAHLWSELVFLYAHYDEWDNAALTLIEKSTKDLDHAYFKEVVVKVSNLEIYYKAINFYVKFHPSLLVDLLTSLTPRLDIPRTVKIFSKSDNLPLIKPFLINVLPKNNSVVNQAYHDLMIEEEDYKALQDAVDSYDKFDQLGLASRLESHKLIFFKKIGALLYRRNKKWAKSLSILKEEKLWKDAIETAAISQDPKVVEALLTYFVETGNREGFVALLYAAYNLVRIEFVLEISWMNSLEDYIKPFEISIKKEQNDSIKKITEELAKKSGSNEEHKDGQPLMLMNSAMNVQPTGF
UniProt P38328: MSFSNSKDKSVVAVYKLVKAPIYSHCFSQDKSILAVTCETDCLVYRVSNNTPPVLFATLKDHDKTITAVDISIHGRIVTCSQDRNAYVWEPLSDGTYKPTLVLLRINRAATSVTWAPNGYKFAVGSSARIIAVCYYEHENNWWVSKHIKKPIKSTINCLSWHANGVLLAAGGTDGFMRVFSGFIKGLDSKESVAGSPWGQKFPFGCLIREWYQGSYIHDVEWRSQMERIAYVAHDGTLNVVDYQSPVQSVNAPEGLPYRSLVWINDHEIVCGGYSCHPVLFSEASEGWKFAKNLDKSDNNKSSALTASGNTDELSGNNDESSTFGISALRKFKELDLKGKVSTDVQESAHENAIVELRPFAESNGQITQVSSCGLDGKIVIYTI

Results are given in words; binding and its absence hold for the method and conditions named. In cells and extracts the contact can be indirect. Some entries that bind do so weakly or less than the wild type.

T1: Sla1 (S. cerevisiae) (UniProt P32790)
T1 sequence: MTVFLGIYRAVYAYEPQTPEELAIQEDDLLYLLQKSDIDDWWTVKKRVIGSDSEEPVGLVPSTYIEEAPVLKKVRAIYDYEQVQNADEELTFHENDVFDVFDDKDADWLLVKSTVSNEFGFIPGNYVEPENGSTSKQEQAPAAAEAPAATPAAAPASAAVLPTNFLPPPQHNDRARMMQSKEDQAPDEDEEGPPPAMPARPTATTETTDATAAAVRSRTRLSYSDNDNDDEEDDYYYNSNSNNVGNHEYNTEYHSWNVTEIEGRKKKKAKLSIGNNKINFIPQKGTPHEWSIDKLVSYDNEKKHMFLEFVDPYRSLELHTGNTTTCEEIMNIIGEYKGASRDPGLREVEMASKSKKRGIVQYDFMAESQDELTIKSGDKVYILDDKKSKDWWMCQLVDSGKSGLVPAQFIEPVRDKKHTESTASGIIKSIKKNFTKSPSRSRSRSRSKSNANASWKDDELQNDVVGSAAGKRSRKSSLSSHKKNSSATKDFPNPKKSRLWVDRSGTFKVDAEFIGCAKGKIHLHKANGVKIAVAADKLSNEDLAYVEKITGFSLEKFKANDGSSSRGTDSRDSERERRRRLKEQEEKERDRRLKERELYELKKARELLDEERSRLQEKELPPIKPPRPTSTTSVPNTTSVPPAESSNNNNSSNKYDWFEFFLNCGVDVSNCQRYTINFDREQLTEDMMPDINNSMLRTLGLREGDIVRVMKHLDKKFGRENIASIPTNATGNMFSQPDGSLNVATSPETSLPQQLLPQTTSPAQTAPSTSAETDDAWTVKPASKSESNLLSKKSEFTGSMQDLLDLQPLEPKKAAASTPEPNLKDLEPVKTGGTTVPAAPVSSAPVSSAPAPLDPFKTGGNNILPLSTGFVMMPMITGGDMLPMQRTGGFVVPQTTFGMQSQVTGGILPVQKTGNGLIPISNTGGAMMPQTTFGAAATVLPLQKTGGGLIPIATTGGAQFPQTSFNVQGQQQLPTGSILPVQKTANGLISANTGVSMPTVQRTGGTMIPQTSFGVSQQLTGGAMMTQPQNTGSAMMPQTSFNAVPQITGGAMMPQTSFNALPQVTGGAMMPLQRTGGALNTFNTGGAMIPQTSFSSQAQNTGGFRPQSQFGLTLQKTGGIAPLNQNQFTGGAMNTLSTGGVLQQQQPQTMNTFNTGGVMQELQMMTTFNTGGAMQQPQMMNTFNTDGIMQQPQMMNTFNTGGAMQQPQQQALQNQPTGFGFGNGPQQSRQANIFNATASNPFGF

T2: Sla1 (S. cerevisiae), P32790
T2 chain: T1 sequence

B1: Ysc84 (protein, UniProt P32793 1-468)
chain: MGINNPIPRSLKSETKKAAKVLRSFVKPNQVFGADQVIPPYVLKRAKGLAIITVLKAGFLFSGRAGSGVIVARLKDGTWSAPSAIAMAGAGAGGMVGVELTDFVFILNSEEAVRSFSEFGTITLGGNVSVSAGPLGRSAEAAASASTGGVSAVFAYSKSKGLFAGVSVEGSAILERREANRKFYGDNCTSKMILSGRVKVPPAADPLLRILESRAFNFTRHDHDDNASGDDFYDDGQYSDNTSHYYDDIPDSFDSTDESSTRPNTRSSRRRGMSLGSRSRYDDDYDDDGYGRGRGYGDFDSEDEDYDYGRSPNRNSSRNRGPQIDRGTKPRANTRWEDDLYDRDTEYSRPNHSGRDYDNTRGNRRGYGRERGYSLGHGPTHPSNMSNVDDLSHKMSKTGLGNESTATNSATPTAVALYNFAGEQPGDLAFKKGDVITILKKSDSQNDWWTGRTNGKEGIFPANYVRVS
B2: Ede1 (protein, UniProt P34216 1-1381)
chain: MASITFRTPLSSQEQAFYNQKFHQLDTEDLGVVTGEAVRPLFASSGLPGQLLSQVWATVDIDNKGFLNLNEFSAALRMIAQLQNAPNQPISAALYESTPTQLASFSINQNPAPMQSGSATGNTNNTDIPALSSNDIAKFSQLFDRTAKGAQTVAGDKAKDIFLKARLPNQTLGEIWALCDRDASGVLDKSEFIMAMYLIQLCMSHHPSMNTPPAVLPTQLWDSIRLEPVVVNQPNRTTPLSANSTGVSSLTRHSTISRLSTGAFSNAASDWSLSFEKKQQFDAIFDSLDKQHAGSLSSAVLVPFFLSSRLNQETLATIWDLADIHNNAEFTKLEFAIAMFLIQKKNAGVELPDVIPNELLQSPALGLYPPNPLPQQQSAPQIAIPSRASKPSLQDMPHQVSAPAVNTQPTVPQVLPQNSNNGSLNDLLALNPSFSSPSPTKAQTVVQNNTNNSFSYDNNNGQATLQQQQPQQPPPLTHSSSGLKKFTPTSNFGQSIIKEEPEEQEQLRESSDTFSAQPPPVPKHASSPVKRTASTTLPQVPNFSVFSMPAGAATSAATGAAVGAAVGAAALGASAFSRSSNNAFKNQDLFADGEASAQLSNATTEMANLSNQVNSLSKQASITNDKKSRATQELKRVTEMKNSIQIKLNNLRSTHDQNVKQTEQLEAQVLQVNKENETLAQQLAVSEANYHAAESKLNELTTDLQESQTKNAELKEQITNLNSMTASLQSQLNEKQQQVKQERSMVDVNSKQLELNQVTVANLQKEIDGLGEKISVYLTKQKELNDYQKTVEEQHAQLQAKYQDLSNKDTDLTDREKQLEERNRQIEEQENLYHQHVSKLQEMFDDLSQRKASFEKADQELKERNIEYANNVRELSERQMNLAMGQLPEDAKDIIAKSASNTDTTTKEATSRGNVHEDTVSKFVETTVENSNLNVNRVKDDEEKTERTESDVFDRDVPTLGSQSDSENANTNNGTQSGNETANPNLTETLSDRFDGDLNEYGIPRSQSLTSSVANNAPQSVRDDVELPETLEERDTINNTANRDNTGNLSHIPGEWEATPATASTDVLSNETTEVIEDGSTTKRANSNEDGESVSSIQESPKISAQPKAKTINEEFPPIQELHIDESDSSSSDDDEFEDTREIPSATVKTLQTPYNAQPTSSLEIHTEQVIKYPAPGTSPSHNEGNSKKASTNSILPVKDEFDDEFAGLEQAAVEEDNGADSESEFENVANAGSMEQFETIDHKDLDDELQMNAFTGTLTSSSNPTIPKPQVQQQSTSDPAQVSNDEWDEIFAGFGNSKAEPTKVATPSIPQQPIPLKNDPIVDASLSKGPIVNRGVATTPKSLAVEELSGMGFTEEEAHNALEKCNWDLEAATNFLLDSA
B3: Yap1802 (protein, UniProt P53309 1-568)
chain: MSSLYTKLVKGATKIKMAPPKQKYVDPILSGTSSARGLQEITHALDIRLSDTAWTIVYKALIVLHLMIQQGEKDVTLRHYSHNLDVFQLRKISHTTKWSSNDMRALQRYDEYLKTRCEEYGRLGMDHLRDNYSSLKLGSKNQLSMDEELDHVESLEIQINALIRNKYSVSDLENHLLLYAFQLLVQDLLGLYNALNEGVITLLESFFELSIEHAKRTLDLYKDFVDMTEYVVRYLKIGKAVGLKIPVIKHITTKLINSLEEHLREETKRQRGEPSEPQQDRKPSTAISSTSSHNNNSNDKNKSIAQKKLEQIREQKRLLEQQLQNQQLLISPTVPQDAYNPFGSQQQDLNNDTFSFEPTQPQMTAQVPQPTANPFLIPQQQQQALQLTSASTMPQPSEIQITPNLNNQQTGMYASNLQYTPNFTGSGFGGYTTTENNAIMTGTLDPTKTGSNNPFSLENIAREQQQQNFQNSPNPFTLQQAQTTPILAHSQTGNPFQAQNVVTSPMGTYMTNPVAGQLQYASTGAQQQPQMMQGQQTGYVMVPTAFVPINQQQQQQQHQQENPNLIDI
B4: Lsb3 (protein, UniProt P43603 1-459)
chain: MGINNPIPRSLKSETKKAAKILASFVKPNQVFGADQVIPPDVLKRAKGLAIITILKAGFLFSGRAGSGVIVARLKDGTWSAPSAIAMAGAGAGGMVGIELTDFVFILNTQDAVKSFSEFGTITLGGNVSVSAGPLGRSAEAAASASAGGVAAVFAYSKSKGLFAGVSVEGSAIIERREANRKFYGDNCTAKMILSGRIRPPPAVDPLFRVLESRAFNYRPSNGGRGSFDDDEDDYYDDDDYYNDIPSSFSSTDASSTRPNTRSTRRRAQSGSRYTFDDDDDDDDYGTGYSRNSRLAPTNSGGSGGKLDDPSGASSYYASHRRSGTAQSRARSSRNRWADDEYDDYDDDYESGYRRGNGRDRTKDREVDDLSNRFSKSRISSASTPQTSQGRFTAPTSPSTSSPKAVALYSFAGEESGDLPFRKGDVITILKKSDSQNDWWTGRVNGREGIFPANYVELV
B5: Abp1 (protein, UniProt P15891 1-592)
chain: MALEPIDYTTHSREIDAEYLKIVRGSDPDTTWLIISPNAKKEYEPESTGSSFHDFLQLFDETKVQYGLARVSPPGSDVEKIIIIGWCPDSAPLKTRASFAANFAAVANNLFKGYHVQVTARDEDDLDENELLMKISNAAGARYSIQTSSKQQGKASTPPVKKSFTPSKSPAPVSKKEPVKTPSPAPAAKISSRVNDNNDDDDWNEPELKERDFDQAPLKPNQSSYKPIGKIDLQKVIAEEKAKEDPRLVQKPTAAGSKIDPSSDIANLKNESKLKRDSEFNSFLGTTKPPSMTESSLKNDDDKVIKGFRNEKSPAQLWAERKAKQNSGNAETKAEAPKPEVPEDEPEGEPDVKDLKSKFEGLAASEKEEEEMENKFAPPPKKSEPTIISPKPFSKPQEPVKAEEAEQPKTDYKKIGNPLPGMHIEADNEEEPEENDDDWDDDEDEAAQPPLPSRNVASGAPVQKEEPEQEEIAPSLPSRNSIPAPKQEEAPEQAPEEEIEEEAEEAAPQLPSRSSAAPPPPPRRATPEKKPKENPWATAEYDYDAAEDNELTFVENDKIINIEFVDDDWWLGELEKDGSKGLFPSNYVSLGN
B6: End3, P39013 1-349 (protein)
chain: MPKLEQFEIKKYWQIFSGLKPIENKVNHDQVLPILYNSKLDSSVLNKIWFLADIDDDDNLDFEEFVICMRLIFDMVNKNISSVPDELPDWLIPGSKVNLIKERKKRKQIENADLPPKKEIKVDWYMSPDDLNQYEKIYNSCAKLTDGTITFNELSTKLSTKFFNISKTDLNKVWSLINPQNLPSIDRDPTFYFIHCLRQRNDLGAEIPASLPNSLAEVCNKKQLSYDLRSSQPPTKRKEEANEVDNLRDNGQNSSSDSSGSNVLSNEDSIKQKYASLTDDQVANMREQLEGLLNYKKSEKTQGGSKLSKRINIRSITDDLDNIEQQVEVLENYLNNKRHELQALQAEIN

For one assay, the target named is T1, Sla1 (S. cerevisiae). In words: split reporter.
Settings: not given
For the molecule Las17 (from UniProt Q12446 1-633), the binding entry is reported as “binds”.

As to Hsp104 (from UniProt P31539 1-908), the binding result is recorded as “binds”.

Regarding Chc1 (from UniProt P22137 1-1653), the binding result is listed as “binds”.

On to Arc40 (from UniProt P38328 1-384), for which the binding entry is on record as “binds”.

Take B1: the binding entry was “binds”.

B2: the binding entry was “binds”.

With B3, the binding entry is “binds”.

Consider B4, for which the binding entry is “binds”.

B5: the binding result is on record as “binds”.

The target in a further assay is T2, Sla1 (S. cerevisiae), P32790. Kind of assay: split reporter. The note with it: remark: other sources report otherwise.
Regarding B6, the binding entry was “binds”.
